According to patent publication US10125101B2, “Indanylaminopyridylcyclopropanecarboxylic acids, pharmaceutical compositions and uses thereof” (Boehringer Ingelheim International GmbH, priority 2016, dated 2018):

Assay: Aqueous solubility
Format: physicochemical
Settings: buffer pH 2.2, 24 h shaking, 2.5% DMSO
Protocol: Starting from a 10 mM DMSO stock solution aliquots are diluted with acetonitrile/water (1/1) or buffer, respectively. After 24 h of shaking, the solutions are filtrated and analyzed by LC-UV. The amount dissolved in buffer is compared to the amount in the acetonitrile solution.

Cc1cc(-c2nnn(C)n2)cc(C)c1-c1ccc(F)c2c1CC[C@H]2Nc1ccc([C@H]2C[C@@H]2C(=O)O)nc1 [Example 30]
Solubility at pH value 2.2: 99 μg/mL and Solubility (pH 2.2) = 99 μg/mL

Not every entry of the source has a single result; some have several. They are shown here; other results are not. The source may hold further records. The values listed for one entry do not match, cause unknown; some may be repeats, others may stem from another dose, organism or construct than stated.
